Measurements: PubChem BioAssay AID2685 (National Center for Advancing Translational Sciences (NCATS), 2010)
This is one part of the list. These are further read-outs of the screen, such as a control signal, another cell line or another target. No call is given for them. Most of these compounds were active or inconclusive in the main read-out, so they are no random draw. Words in brackets tell the shape of the fitted curve; partial curves, single points and poor fits give uncertain potencies.

Experiment: qHTS Assay for Lipid Storage Modulators in Drosophila S3 Cells;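 for cell number change: cells counted by Cell Tracker Red CMTPX staining in the red channel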
Conditions: BODIPY lipid droplet fluorescence, 18-24 h; for cell number change: measured here: cell count max response, cells fed with added oleic acid
In short: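 Drosophila S3 cells loaded with oleic acid (400 uM, as added) and compounds at several concentrations; lipid droplets imaged by 488-nm laser-scanning cytometry, 500–530 nm intensity and object ratio to cell channel. Percent activity normalized to 20 uM Triacsin C.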

[1] = measured here: lipid fluorescence (Fed channel) AC50, cells fed with added oleic acid
[2] = measured here: cell number channel AC50, cells fed with added oleic acid

| SMILES | cell number change [%] | AC50 [1] | AC50 [2] |
| --- | --- | --- | --- |
| CCN(CC(=O)NCc1cccs1)S(=O)(=O)c1ccc(C(C)C)cc1 | -12.1 | 0.92 µM [falling, single point] |  |
| CCN(CC)S(=O)(=O)c1ccc(N2CC(C(=O)NCc3ccc4c(c3)OCO4)CC2=O)cc1 (centres undefined) | 13.9 | 29.1 µM [falling, single point] |  |
| CC(C)CNC(=S)N(CCN(C)C)Cc1cc2cc3c(cc2[nH]c1=O)OCCO3 | 3.41 | 13 µM [rising, partial curve] |  |
| O=C1[C@@H]2Cc3c([nH]c4ccccc34)CN2C(=O)CN1CCO | 95.1 |  | 3.26 µM [rising, full curve] |
| CN(C)CCCN(C(=O)COc1ccccc1)c1nc2cc3c(cc2s1)OCCO3 | 5.89 | 6.51 µM [rising, single point] |  |
| CCN(CC(=O)NCc1cccs1)C(=O)c1ccc(S(=O)(=O)Nc2ccccc2C)cc1 | 0.263 | 0.326 µM [rising, full curve, poor fit] |  |
| O=c1[nH]n(CC2COC3(CCCCC3)O2)c(=O)c2ccccc12 (centres undefined) |  |  | 0.146 µM [rising, full curve, poor fit] |
| COc1ccc(C(=O)SC2=NCCS2)cc1OC | -20.7 | 0.0517 µM [falling, full curve, poor fit] | 0.00411 µM [falling, full curve, poor fit] |
| Cc1cccc(C)c1NC(=O)CNC(=O)c1cccc(S(=O)(=O)NCc2cccs2)c1 | -33.6 | 29.1 µM [falling, single point] | 32.6 µM [falling, single point] |
| C=C1C[C@@]23CCC4[C@@](C)(CCC[C@@]4(C)C(=O)O)C2CC[C@]1(O)C3 (some centres undefined) | 13.7 | 20.6 µM [rising, partial curve, poor fit] | 0.103 µM [falling, single point] |
| Cc1ccc(Cn2ccc(NC(=O)c3cc(-c4ccccc4)on3)n2)cc1 | 3.65 | 2.59 µM [rising, partial curve] |  |
| CC(=O)C1=C(c2ccccc2)NC(=O)NC1c1ccccc1OCC(=O)Nc1ccccc1 (centres undefined) |  |  | 6.51 µM [rising, single point] |
| Cc1nn2c(N3CCOCC3)cc(C(C)(C)C)nc2c1-c1ccccc1 | -22.2 | 0.58 µM [rising, single point] |  |
| O=C(NCNC(=O)c1ccccc1)c1ccccc1 | 43.6 |  | 29.1 µM [rising, single point] |
| OCC1(CCOc2ccccc2)CCN(Cc2nc3ccc(F)cc3[nH]2)CC1 | 5.61 | 29.1 µM [rising, single point] |  |
| CN(C)C(CNC(=O)CSc1nc2ccccc2c(=O)n1Cc1ccco1)c1ccccc1 (centres undefined) | 29.3 | 32.6 µM [rising, single point] |  |
| Cc1cc(C(=O)CSc2nn3c(=O)c(C(C)(C)C)nnc3s2)c(C)n1-c1ccc(F)cc1 | 1.1 | 6.51 µM [falling, single point] |  |
| O=C(Nc1ccccc1C(=O)N1CCCCC1)c1ccccc1C(F)(F)F | 25.1 | 16.4 µM [rising, partial curve] |  |
| COC(=O)CSc1nnc(-c2cccnc2)n1-c1cc(OC)cc(OC)c1 | 0.884 | 0.651 µM [rising, full curve, poor fit] |  |
| O=C(COc1ccccc1)Nc1ncccn1 | -36.4 | 3.26 µM [falling, partial curve, poor fit] | 3.66 µM [falling, full curve] |
| Cc1ccc(-n2c(N)c(C(=O)N3CCOCC3)sc2=S)c(C)c1 | 27.6 | 0.82 µM [falling, full curve] |  |
| COc1ccc(/C=C2\SC(=S)N(CC(=O)N(C)C3CCS(=O)(=O)C3)C2=O)cc1 (centres undefined) | 18.5 | 23.1 µM [rising, single point] |  |
| Cc1cccc(S(=O)(=O)C(C#N)c2nc3ccccc3nc2N2CCCC2)c1 (centres undefined) | -13.4 | 0.184 µM [rising, full curve, poor fit] |  |
| Cc1ccc(NC(=O)CNC(=O)c2cccs2)cc1S(=O)(=O)Nc1ccc(Cl)cc1 | 8.99 | 0.82 µM [rising, full curve, poor fit] |  |
| Cc1ccccc1NC(=O)CSc1nnc(C)c(=O)[nH]1 | 27.4 |  |  |
| CC(C)Cn1c(NCCN(C)C)nc2c1c(=O)[nH]c(=O)n2C | -39.9 |  | 1.03 µM [falling, partial curve] |
| CC(C)(C)OC(=O)C1C(=O)CC(C)(O)C(C(=O)OC(C)(C)C)C1c1cccnc1 (centres undefined) | 12.5 | 0.291 µM [rising, full curve] |  |
| CC(=O)c1cc(C)ccc1OC(=O)CCN1C(=O)C2C3c4ccccc4C(c4ccccc43)C2C1=O (centres undefined) | -3.53 | 0.103 µM [falling, full curve, poor fit] |  |
| COc1c(-c2ccc([N+](=O)[O-])cc2[N+](=O)[O-])c(=O)n(C)c(=O)n1C | 28.7 | 6.51 µM [rising, full curve] |  |

Pulled by structure from above, 2 records:

| SMILES | cell number change [%] | AC50 [1] | AC50 [2] |
| --- | --- | --- | --- |
| CC(C)Cn1c(NCCN(C)C)nc2c1c(=O)[nH]c(=O)n2C | -39.9 |  | 1.03 µM [falling, partial curve] |
| Cc1ccccc1NC(=O)CSc1nnc(C)c(=O)[nH]1 | 27.4 |  |  |
